The other results are listed elsewhere or left out.
Legend:
Test in all cases: glycan array binding signal (z-score within array); higher = stronger binding
Settings in all cases: glycan notation: IUPAC condensed, linker removed
[1] = target: Fuc(a1-2)Gal(b1-4)GlcNAc(b1-3)Gal(b1-4)GlcNAc(b1-3)Gal(b1-4)GlcNAc
Outline: (§1)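 Negative Z-scores can be read as non-binding. The Z-score is calculated within each array and then averaged across arrays of one protein sequence at different concentrations or buffers and across linkers. Arrays, 3228 in all, were curated from the Consortium for Functional Glycomics database and kept only where the protein sequence was available.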

[2] = target: Fuc(a1-2)Gal(b1-4)GlcNAc(b1-3)GalNAc
Outline: as §1

[3] = target: Fuc(a1-2)Gal(b1-4)GlcNAc(b1-3)[Fuc(a1-2)Gal(b1-4)GlcNAc(b1-6)]GalNAc
Outline: as §1

[4] = target: Fuc(a1-2)Gal(b1-4)GlcNAc(b1-3)[Fuc(a1-3)[Gal(b1-4)]GlcNAc(b1-6)]Gal(b1-4)Glc
Outline: as §1

[5] = target: Fuc(a1-2)Gal(b1-4)GlcNAc(b1-6)GalNAc
Outline: as §1

[6] = target: Fuc(a1-2)Gal(b1-4)GlcNAc6S
Outline: as §1

[7] = target: Fuc(a1-2)Gal(b1-4)[Fuc(a1-3)]GlcNAc
Outline: as §1

[8] = target: Fuc(a1-2)Gal(b1-4)[Fuc(a1-3)]GlcNAc(b1-2)Man(a1-3)[Fuc(a1-2)Gal(b1-4)[Fuc(a1-3)]GlcNAc(b1-2)Man(a1-6)]Man(b1-4)GlcNAc(b1-4)[Fuc(a1-6)]GlcNAc
Outline: as §1

[9] = target: Fuc(a1-2)Gal(b1-4)[Fuc(a1-3)]GlcNAc(b1-2)[Fuc(a1-2)Gal(b1-4)[Fuc(a1-3)]GlcNAc(b1-4)]Man(a1-3)[Fuc(a1-2)Gal(b1-4)[Fuc(a1-3)]GlcNAc(b1-2)Man(a1-6)]Man(b1-4)GlcNAc(b1-4)GlcNAc
Outline: as §1

[10] = target: Fuc(a1-2)Gal(b1-4)[Fuc(a1-3)]GlcNAc(b1-3)Gal(b1-4)[Fuc(a1-3)]GlcNAc
Outline: as §1

[11] = target: Fuc(a1-2)Gal(b1-4)[Fuc(a1-3)]GlcNAc(b1-3)Gal(b1-4)[Fuc(a1-3)]GlcNAc(b1-3)Gal(b1-4)[Fuc(a1-3)]GlcNAc
Outline: as §1

[12] = target: Fuc(a1-2)Gal(b1-4)[Fuc(a1-3)]GlcNAc(b1-3)GalNAc
Outline: as §1

[13] = target: Fuc(a1-2)Gal(b1-4)[Fuc(a1-3)]GlcNAc(b1-3)[Neu5Ac(a2-6)Gal(b1-4)GlcNAc(b1-6)]Gal(b1-4)Glc
Outline: as §1

[14] = target: Fuc(a1-2)Gal3S(b1-4)GlcNAc
Outline: as §1

[15] = target: Fuc(a1-2)Gal6S(b1-3)GlcNAc
Outline: as §1

[16] = target: Fuc(a1-2)Gal6S(b1-3)GlcNAc6S
Outline: as §1

[17] = target: Fuc(a1-2)Gal6S(b1-4)Glc
Outline: as §1

[18] = target: Fuc(a1-2)Gal6S(b1-4)Glc6S
Outline: as §1

[19] = target: Fuc(a1-2)[Gal(a1-3)]Gal
Outline: as §1

[20] = target: Fuc(a1-2)[Gal(a1-3)]Gal(b1-3)GalNAc
Outline: as §1

[21] = target: Fuc(a1-2)[Gal(a1-3)]Gal(b1-3)GalNAc(b1-3)Gal(a1-4)Gal(b1-4)Glc
Outline: as §1

[22] = target: Fuc(a1-2)[Gal(a1-3)]Gal(b1-3)GlcNAc
Outline: as §1

[23] = target: Fuc(a1-2)[Gal(a1-3)]Gal(b1-3)GlcNAc(b1-2)Man(a1-3)[Fuc(a1-2)[Gal(a1-3)]Gal(b1-3)GlcNAc(b1-2)Man(a1-6)]Man(b1-4)GlcNAc(b1-4)GlcNAc
Outline: as §1

[24] = target: Fuc(a1-2)[Gal(a1-3)]Gal(b1-3)GlcNAc(b1-2)Man(a1-3)[Fuc(a1-2)[Gal(a1-3)]Gal(b1-3)GlcNAc(b1-2)Man(a1-6)]Man(b1-4)GlcNAc(b1-4)[Fuc(a1-6)]GlcNAc
Outline: as §1

[25] = target: Fuc(a1-2)[Gal(a1-3)]Gal(b1-3)GlcNAc(b1-3)GalNAc
Outline: as §1

[26] = target: Fuc(a1-2)[Gal(a1-3)]Gal(b1-3)GlcNAc(b1-6)GalNAc
Outline: as §1

[27] = target: Fuc(a1-2)[Gal(a1-3)]Gal(b1-4)Glc
Outline: as §1

[28] = target: Fuc(a1-2)[Gal(a1-3)]Gal(b1-4)GlcNAc
Outline: as §1

[29] = target: Fuc(a1-2)[Gal(a1-3)]Gal(b1-4)GlcNAc(b1-2)Man
Outline: as §1

[30] = target: Fuc(a1-2)[Gal(a1-3)]Gal(b1-4)GlcNAc(b1-2)Man(a1-3)[Fuc(a1-2)[Gal(a1-3)]Gal(b1-4)GlcNAc(b1-2)Man(a1-6)]Man(b1-4)GlcNAc(b1-4)GlcNAc
Outline: as §1

B1: PX9961KLbvu-535-38-535 (Bacteroides vulgatus) (protein)
chain: DKAYTDAESYTKGLHKIYSVWALSGQDGSSSSDISGLDAGNTALLRCWWTLQEQPTDEMKNAWNDAWCTEVNYMTWTTNKVEPIEGVYQRCMYIVALVNEFLKNIPNAPESIDKESYIAQARFNRAFAYYVLMDMFALPPFITEKNYSIEPAPLSREDLFNWIEAELNEIKPNLPSPRSEYGVADQAVASALLARMYLNAEIYTGKARYTECINACNEVIKAGYQLADNYADLFKADNGENPDTKKEIIYPIIFDGDKTQSWGMAAIIIGARGAEDKDVLLAHSGVDQGWAGFRATSNLVHLFDFQNDEEPKASEIQDKRGIFYDKGRSIDITSSVSGTFETEGWSVFKFSNLNSNGQPGKNTLWVDTDFPMFRLGDIYLMYAEAVARGGEGSKASAVEYINALRKRAYGDDKHNISENWLEENNFRNLLDERGRELYWEGIRRTDLVRFDLLTSGSYTWDFKGGINTGVGVNKRYNVYPIPVTDLTVNGNLQQNEGY
- glycan array binding signal (z-score) [1]: 0.17
- glycan array binding signal (z-score) [2]: 0.545
- glycan array binding signal (z-score) [3]: 0.15
- glycan array binding signal (z-score) [4]: -0.598
- glycan array binding signal (z-score) [5]: -0.204
- glycan array binding signal (z-score) [6]: 0.265
- glycan array binding signal (z-score) [7]: -0.295
- glycan array binding signal (z-score) [8]: 0.566
- glycan array binding signal (z-score) [9]: -0.263
- glycan array binding signal (z-score) [10]: 0.27
- glycan array binding signal (z-score) [11]: 0.338
- glycan array binding signal (z-score) [12]: -0.016
- glycan array binding signal (z-score) [13]: -0.086
- glycan array binding signal (z-score) [14]: 0.037
- glycan array binding signal (z-score) [15]: -0.431
- glycan array binding signal (z-score) [16]: 1.23
- glycan array binding signal (z-score) [17]: -0.362
- glycan array binding signal (z-score) [18]: 1.22
- glycan array binding signal (z-score) [19]: 1.72
- glycan array binding signal (z-score) [20]: 0.614
- glycan array binding signal (z-score) [21]: -0.624
- glycan array binding signal (z-score) [22]: -0.648
- glycan array binding signal (z-score) [23]: 0.16
- glycan array binding signal (z-score) [24]: -0.126
- glycan array binding signal (z-score) [25]: -0.92
- glycan array binding signal (z-score) [26]: 1.21
- glycan array binding signal (z-score) [27]: 0.261
- glycan array binding signal (z-score) [28]: 0.791
- glycan array binding signal (z-score) [29]: -0.79
- glycan array binding signal (z-score) [30]: 0.006
